Laboratory results reported in patent US9365577B2, “Pyrimidinone compounds as human neutrophil elastase inhibitors” (CHIESI FARMACEUTICI S.p.A., priority 2012, dated 2016).
Structures can show the parent of a compound that is named as a salt. Some of these results come from one statement about several compounds together.

What follows are compounds tested against T1, human neutrophil elastase (HNE) (Homo sapiens, UniProt P08246) (assay: HNE enzyme assay). Settings: human leukocyte elastase, substrate MeOSuc-Ala-Ala-Pro-Val-AMC, 25° C. for 30 minutes, fluorescence; at least two separate experiments; read-out: HNE inhibition.
T1 construct: purchased Sigma E8140
T1 sequence (P08246 30-267): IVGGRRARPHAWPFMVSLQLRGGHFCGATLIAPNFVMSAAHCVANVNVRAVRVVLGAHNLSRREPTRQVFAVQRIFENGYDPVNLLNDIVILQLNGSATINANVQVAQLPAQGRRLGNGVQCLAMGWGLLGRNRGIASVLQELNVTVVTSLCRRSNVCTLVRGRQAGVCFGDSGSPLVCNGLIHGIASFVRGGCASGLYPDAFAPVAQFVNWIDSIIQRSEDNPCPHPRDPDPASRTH
Type: biochemical
`COC(=O)C1=C(C)N(c2cccc(C(F)(F)F)c2)c2n[nH]c(=O)n2[C@@H]1c1ccc(C#N)cc1CCC[n+]1ccccc1` [Example 51, 1-(3-{5-Cyano-2-[(R)-6-methoxycarbonyl-7-methyl-3-oxo-8-(3-trifluoromethyl-phenyl)-2,3,5,8-tetrahydro-[1,2,4]triazolo[4,3-a]pyrimidin-5-yl]-phenyl}-propyl)-pyridinium bromide] showed an IC50 of under 20 nM.
Work on `COC(=O)C1=C(C)N(c2cccc(C(F)(F)F)c2)c2n[nH]c(=O)n2[C@@H]1c1ccc(C#N)cc1CCC[n+]1cccc(C)c1` [Example 58, 1-(3-{5-Cyano-2-[(R)-6-methoxycarbonyl-7-methyl-3-oxo-8-(3-trifluoromethyl-phenyl)-2,3,5,8-tetrahydro-[1,2,4]triazolo[4,3-a]pyrimidin-5-yl]-phenyl}-propyl)-3-methyl-pyridinium formate] yielded an IC50 of under 20 nM.
`COC(=O)C1=C(C)N(c2cccc(C(F)(F)F)c2)c2n[nH]c(=O)n2[C@@H]1c1ccc(C#N)cc1CCC[n+]1ccccc1C` [Example 59, 1-(3-{5-Cyano-2-[(R)-6-methoxycarbonyl-7-methyl-3-oxo-8-(3-trifluoromethyl-phenyl)-2,3,5,8-tetrahydro-[1,2,4]triazolo[4,3-a]pyrimidin-5-yl]-phenyl}-propyl)-2-methyl-pyridinium formate] gave an IC50 of under 20 nM.
`COC(=O)C1=C(C)N(c2cccc(C(F)(F)F)c2)c2n[nH]c(=O)n2[C@@H]1c1ccc(C#N)cc1CCC[n+]1cccc(CO)c1` [Example 60, 1-(3-{5-Cyano-2-[(R)-6-methoxycarbonyl-7-methyl-3-oxo-8-(3-trifluoromethyl-phenyl)-2,3,5,8-tetrahydro-[1,2,4]triazolo[4,3-a]pyrimidin-5-yl]-phenyl}-propyl)-3-hydroxymethyl-pyridinium formate] showed an IC50 of under 20 nM.
Work on `COC(=O)C1=C(C)N(c2cccc(C(F)(F)F)c2)c2n[nH]c(=O)n2[C@@H]1c1ccc(C#N)cc1CCC[n+]1cccc(Cl)c1` [Example 61, 3-Chloro-1-(3-{5-cyano-2-[(R)-6-methoxycarbonyl-7-methyl-3-oxo-8-(3-trifluoromethyl-phenyl)-2,3,5,8-tetrahydro-[1,2,4]triazolo[4,3-a]pyrimidin-5-yl]-phenyl}-propyl)-pyridinium formate] yielded an IC50 of under 20 nM.
Compound `CCCC[N+](C)(C)CCc1cc(C#N)ccc1[C@@H]1C(C(=O)OC)=C(C)N(c2cccc(C(F)(F)F)c2)c2n[nH]c(=O)n21` [Example 62, Butyl-(3-{5-cyano-2-[(R)-6-methoxy-carbonyl-7-methyl-3-oxo-8-(3-trifluoromethyl-phenyl)-2,3,5,8-tetrahydro-[1,2,4]triazolo[4,3-a]pyrimidin-5-yl]-phenyl}-ethyl)-dimethyl-ammonium formate] has an IC50 of under 20 nM.
`COC(=O)C1=C(C)N(c2cccc(C(F)(F)F)c2)c2n[nH]c(=O)n2[C@@H]1c1ccc(C#N)cc1CC[N+](C)(C)C1CCCCC1` [Example 63, (3-{5-Cyano-2-[(R)-6-methoxycarbonyl-7-methyl-3-oxo-8-(3-trifluoromethyl-phenyl)-2,3,5,8-tetrahydro-[1,2,4]triazolo[4,3-a]pyrimidin-5-yl]-phenyl}-ethyl)-cyclohexyl-dimethyl-ammonium formate] showed an IC50 of under 20 nM.
Work on `COC(=O)C1=C(C)N(c2cccc(C(F)(F)F)c2)c2n[nH]c(=O)n2[C@@H]1c1ccc(C#N)cc1CC[N+]1(C)CCCC1` [Example 64, 1-(3-{5-Cyano-2-[(R)-6-methoxycarbonyl-7-methyl-3-oxo-8-(3-trifluoromethyl-phenyl)-2,3,5,8-tetrahydro-[1,2,4]triazolo[4,3-a]pyrimidin-5-yl]-phenyl}-ethyl)-1-methyl-pyrrolidinium formate] yielded an IC50 of under 20 nM.
Compound `COC(=O)C1=C(C)N(c2cccc(C(F)(F)F)c2)c2n[nH]c(=O)n2[C@@H]1c1ccc(C#N)cc1CC[N+]1(C)CCCCC1` [Example 65, 1-(3-{5-Cyano-2-[(R)-6-methoxycarbonyl-7-methyl-3-oxo-8-(3-trifluoromethyl-phenyl)-2,3,5,8-tetrahydro-[1,2,4]triazolo[4,3-a]pyrimidin-5-yl]-phenyl}-ethyl)-1-methyl-piperidinium formate] has an IC50 of under 20 nM.
For `COC(=O)C1=C(C)N(c2cccc(C(F)(F)F)c2)c2n[nH]c(=O)n2[C@@H]1c1ccc(C#N)cc1CC[N+]1(C)CCC(O)CC1` (stereo partly drawn) [Example 66, 1-(3-{5-Cyano-2-[(R)-6-methoxycarbonyl-7-methyl-3-oxo-8-(3-trifluoromethyl-phenyl)-2,3,5,8-tetrahydro-[1,2,4]triazolo[4,3-a]pyrimidin-5-yl]-phenyl}-ethyl)-4-hydroxy-1-methyl-piperidinium formate], the IC50 was under 20 nM.
Compound `COC(=O)C1=C(C)N(c2cccc(C(F)(F)F)c2)c2n[nH]c(=O)n2[C@@H]1c1ccc(C#N)cc1CC[N+](C)(C)C1COC1` [Example 67, (3-{5-Cyano-2-[(R)-6-methoxycarbonyl-7-methyl-3-oxo-8-(3-trifluoromethyl-phenyl)-2,3,5,8-tetrahydro-[1,2,4]triazolo[4,3-a]pyrimidin-5-yl]-phenyl}-ethyl)-dimethyl-oxetan-3-yl-ammonium formate] has an IC50 of under 20 nM.
Compound `COC(=O)C1=C(C)N(c2cccc(C(F)(F)F)c2)c2n[nH]c(=O)n2[C@@H]1c1ccc(C#N)cc1CC[N+](C)(C)C1CCOCC1` [Example 68, (3-{5-Cyano-2-[(R)-6-methoxycarbonyl-7-methyl-3-oxo-8-(3-trifluoromethyl-phenyl)-2,3,5,8-tetrahydro-[1,2,4]triazolo[4,3-a]pyrimidin-5-yl]-phenyl}-ethyl)-dimethyl-(tetrahydro-pyran-4-yl)-ammonium formate] has an IC50 of under 20 nM.
`COC(=O)C1=C(C)N(c2cccc(C(F)(F)F)c2)c2n[nH]c(=O)n2[C@@H]1c1ccc(C#N)cc1CC[N+]1(C)CCOCC1` [Example 69, 4-(2-{5-Cyano-2-[(R)-6-methoxycarbonyl-7-methyl-3-oxo-8-(3-trifluoromethyl-phenyl)-2,3,5,8-tetrahydro-[1,2,4]triazolo[4,3-a]pyrimidin-5-yl]-phenyl}-ethyl)-4-methyl-morpholin-4-ium formate] showed an IC50 of under 20 nM.
With `COC(=O)C1=C(C)N(c2cccc(C(F)(F)F)c2)c2n[nH]c(=O)n2[C@@H]1c1ccc(C#N)cc1CC[N+](C)(C)CC(=O)N(C)C` [Example 70, (2-{5-Cyano-2-[(R)-6-methoxycarbonyl-7-methyl-3-oxo-8-(3-trifluoromethyl-phenyl)-2,3,5,8-tetrahydro-[1,2,4]triazolo[4,3-a]pyrimidin-5-yl]-phenyl}-ethyl)-dimethylcarbamoyl-methyl-dimethyl-ammonium formate] the IC50 was under 20 nM.
`COCCC[N+](C)(C)CCc1cc(C#N)ccc1[C@@H]1C(C(=O)OC)=C(C)N(c2cccc(C(F)(F)F)c2)c2n[nH]c(=O)n21` [Example 71, (2-{5-Cyano-2-[(R)-6-methoxycarbonyl-7-methyl-3-oxo-8-(3-trifluoromethyl-phenyl)-2,3,5,8-tetrahydro-[1,2,4]triazolo[4,3-a]pyrimidin-5-yl]-phenyl}-ethyl)-(3-methoxy-propyl)-dimethyl-ammonium formate] showed an IC50 of under 20 nM.
`COC(=O)C1=C(C)N(c2cccc(C(F)(F)F)c2)c2n[nH]c(=O)n2[C@@H]1c1ccc(C#N)cc1CC[N+](C)(C)CC1CCC1` [Example 72, (2-{5-Cyano-2-[(R)-6-methoxycarbonyl-7-methyl-3-oxo-8-(3-trifluoromethyl-phenyl)-2,3,5,8-tetrahydro-[1,2,4]triazolo[4,3-a]pyrimidin-5-yl]-phenyl}-ethyl)-cyclobutylmethyl-dimethyl-ammonium formate] showed an IC50 of under 20 nM.
With `COC(=O)C1=C(C)N(c2cccc(C(F)(F)F)c2)c2n[nH]c(=O)n2[C@@H]1c1ccc(C#N)cc1CC[N+](C)(C)CC1CCOCC1` [Example 73, (2-{5-Cyano-2-[(R)-6-methoxycarbonyl-7-methyl-3-oxo-8-(3-trifluoromethyl-phenyl)-2,3,5,8-tetrahydro-[1,2,4]triazolo[4,3-a]pyrimidin-5-yl]-phenyl}-ethyl)-dimethyl-(tetrahydro-pyran-4-ylmethyl)-ammonium formate] the IC50 was under 20 nM.
`COC(=O)C1=C(C)N(c2cccc(C(F)(F)F)c2)c2n[nH]c(=O)n2[C@@H]1c1ccc(C#N)cc1CC[N+]1(CCO)CCCC1` [Example 74, 1-(2-{5-Cyano-2-[(R)-6-methoxycarbonyl-7-methyl-3-oxo-8-(3-trifluoromethyl-phenyl)-2,3,5,8-tetrahydro-[1,2,4]triazolo[4,3-a]pyrimidin-5-yl]-phenyl}-ethyl)-1-(2-hydroxy-ethyl)-pyrrolidinium formate] gave an IC50 of under 20 nM.
Work on `COC(=O)C1=C(C)N(c2cccc(C(F)(F)F)c2)c2n[nH]c(=O)n2[C@@H]1c1ccc(C#N)cc1CC[N+](C)(C)CCOCCO` [Example 75, (2-{5-Cyano-2-[(R)-6-methoxycarbonyl-7-methyl-3-oxo-8-(3-trifluoromethyl-phenyl)-2,3,5,8-tetrahydro-[1,2,4]triazolo[4,3-a]pyrimidin-5-yl]-phenyl}-ethyl)-[2-(2-hydroxy-ethoxy)-ethyl]-dimethyl-ammonium formate] yielded an IC50 of under 20 nM.
`COC(=O)C1=C(C)N(c2cccc(C(F)(F)F)c2)c2n[nH]c(=O)n2[C@@H]1c1ccc(C#N)cc1CC[N+](C)(CCO)CCO` [Example 76, (2-{5-Cyano-2-[(R)-6-methoxycarbonyl-7-methyl-3-oxo-8-(3-trifluoromethyl-phenyl)-2,3,5,8-tetrahydro-[1,2,4]triazolo[4,3-a]pyrimidin-5-yl]-phenyl}-ethyl)-bis-(2-hydroxy-ethyl)-methyl-ammonium formate] was tested, and the IC50 was under 20 nM.
`COC(=O)C1=C(C)N(c2cccc(C(F)(F)F)c2)c2n[nH]c(=O)n2[C@@H]1c1ccc(C#N)cc1CC[N+](C)(C)CCO` [Example 77, (2-{5-Cyano-2-[(R)-6-methoxycarbonyl-7-methyl-3-oxo-8-(3-trifluoromethyl-phenyl)-2,3,5,8-tetrahydro-[1,2,4]triazolo[4,3-a]pyrimidin-5-yl]-phenyl}-ethyl)-(2-hydroxy-ethyl)-dimethyl-ammonium forma] showed an IC50 of under 20 nM.
